# The other results are listed elsewhere or left out.
# Chains of the proteins cited; added tags and fusions are not shown.
# UniProt Q0JBA9, entry or part of it: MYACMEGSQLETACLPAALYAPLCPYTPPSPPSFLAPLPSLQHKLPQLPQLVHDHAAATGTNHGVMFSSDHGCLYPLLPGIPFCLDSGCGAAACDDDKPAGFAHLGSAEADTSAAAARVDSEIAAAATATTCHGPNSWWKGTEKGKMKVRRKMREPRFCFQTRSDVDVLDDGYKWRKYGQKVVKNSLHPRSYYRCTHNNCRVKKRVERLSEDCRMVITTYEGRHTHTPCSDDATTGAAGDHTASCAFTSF
# Molecular target: OsWRKY34 (Oryza sativa, UniProt Q0JBA9 1-250)
# Assay: protein-binding microarray (RPBM); PBS, 2% BSA, 51.3 ng/ul salmon testes DNA, 50 uM zinc acetate, 200 nM TF, 25 C, 1 h; high values mean tight binding
# Settings: protein: recombinant; tags: N-terminal polyhistidine and DsRed monomer fusion (pET32a); label: CyDye5-dUTP incorporated in the synthesized complementary strand; 3' TTTTT single-stranded linker to array surface; dsDNA, one strand shown
# Summary of the method: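 The binding signal is fluorescence intensity per feature, in arbitrary units, read on an Axon 4000B scanner. Polyhistidine- and DsRed-tagged transcription factors (N-terminal fusions) from E. coli BL21-CodonPlus were purified on Ni–NTA and applied at 200 nM for 1 h at 25 °C to a double-stranded, BSA-blocked custom Agilent array in buffer with 50 µM zinc acetate.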
row,Sequence,binding signal
1,GATTCAGTAGTTTGGCTCTATCCAGGTTCCAGCACCATCACGGAGTCACCTAGTGCAG,10700 fluorescence intensity (a.u.)
2,GCGCCGAACGCTCCCTCGTCTCGTCTGCTACCTCTCGCTCCGGAGTCACCTAGTGCAG,9160 fluorescence intensity (a.u.)
3,GGTTCGATCTCCGGTCCGGTTTTTTTTTTTACTATGCCGACGGAGTCACCTAGTGCAG,8340 fluorescence intensity (a.u.)
4,AGTCATCCAGTCACCGCCTAGGCCCAGTAACCAATGGTAGCGGAGTCACCTAGTGCAG,9240 fluorescence intensity (a.u.)
5,CGTTCAACAACGACACTGTGCATGATTCGATTCTCCTACCCGGAGTCACCTAGTGCAG,9000 fluorescence intensity (a.u.)
6,GTTGTGTTACATGATTGTCACTTTGGGCCATTAAACAACGCGGAGTCACCTAGTGCAG,8420 fluorescence intensity (a.u.)
7,AGATGGATGCTCTGCCCGCCGCCCTACCACCCTCTGCCATCGGAGTCACCTAGTGCAG,8030 fluorescence intensity (a.u.)
8,AGAACATGGCCATGCCACATATTGCCATCGCTCCATCGCTCGGAGTCACCTAGTGCAG,9200 fluorescence intensity (a.u.)
9,TAAACCCAAGCACGCAGCACACGCTCTCCATTCCATTCCCCGGAGTCACCTAGTGCAG,8220 fluorescence intensity (a.u.)
10,CATCCCTTCTTGTCTTCAAATACTGTCATCTCGATTTGGTCGGAGTCACCTAGTGCAG,9390 fluorescence intensity (a.u.)
11,CGCCGCCTCATCCTCGTCGTCCCGTCAACGCCACCTCACCCGGAGTCACCTAGTGCAG,10800 fluorescence intensity (a.u.)
12,CCTCCCTTGCACGGTGCTGCCATTCTGGGTGCATGCTTAGCGGAGTCACCTAGTGCAG,8120 fluorescence intensity (a.u.)
13,TTTCCTTCTTTTTATTTTTTTGATAATTTTATCCTCTTATCGGAGTCACCTAGTGCAG,9210 fluorescence intensity (a.u.)
14,GCGCATATGGGCGCCCCATTTTTTTCGCCGCATCAGGCGCCGGAGTCACCTAGTGCAG,9760 fluorescence intensity (a.u.)
15,GCCTGCCCACGAGTCCCGCACTAATCGATGTACCCCTTCGCGGAGTCACCTAGTGCAG,8230 fluorescence intensity (a.u.)
16,CTGCCTTTGTTTCTGCAGTTTCCACTCTCTGACTTTAATACGGAGTCACCTAGTGCAG,13100 fluorescence intensity (a.u.)
17,TTGTCTGTGTTCTTGCTGTCTCTTCTTCTCCTACTTCCTCCGGAGTCACCTAGTGCAG,12000 fluorescence intensity (a.u.)
18,TGTAGCTTTCTAATGTTGTTTCTGTTCTAAAACCACAGACCGGAGTCACCTAGTGCAG,8650 fluorescence intensity (a.u.)
19,TTGTTATTTTTCTTTTTTTTCTCTATGTGGATTTGTAGTACGGAGTCACCTAGTGCAG,8610 fluorescence intensity (a.u.)
20,ACACATGTCGTGGTCTCTTCTCCTGTTGCCTCTAAATTAACGGAGTCACCTAGTGCAG,8600 fluorescence intensity (a.u.)
21,ACCCGATACCAAATCACAAAGCATACCTTTCTCAGCCTTTCGGAGTCACCTAGTGCAG,8130 fluorescence intensity (a.u.)
22,ACCATTAATACTTTGGTCTACGTATTACACTCACGTAATACGGAGTCACCTAGTGCAG,8230 fluorescence intensity (a.u.)
23,CTCCCACGGCCTCTCCTGGTCCACGTGTACCAGCCGCAAACGGAGTCACCTAGTGCAG,8040 fluorescence intensity (a.u.)
24,AGAAGCAAGCAGAGAGAGAGAGAGGGAGAGGGAGGGGTGGCGGAGTCACCTAGTGCAG,8630 fluorescence intensity (a.u.)
25,TCTAGTGCCTCGTCTTTTGTCCATCTCCACCATCCACTGTCGGAGTCACCTAGTGCAG,8100 fluorescence intensity (a.u.)
26,CTCCAAATCATCTATAGCCAATGTACTTATTCCATCCGTTCGGAGTCACCTAGTGCAG,8480 fluorescence intensity (a.u.)
27,ATCGCGCCCCGTCCAGCCACCACGAGTCATCTCATCTCATCGGAGTCACCTAGTGCAG,11600 fluorescence intensity (a.u.)

row,Sequence,binding signal
1,TCTTTCCTGTTTCCGCTTGGTTTTCCGGTGTTTATTTTGTCGGAGTCACCTAGTGCAG,14200 fluorescence intensity (a.u.)
2,TTGATGTATGTTGGCTTGTATGTTGATCTTGTGTCTTGATCGGAGTCACCTAGTGCAG,10400 fluorescence intensity (a.u.)
3,GAGAAAATAGCTAGGGGTAGGGGAGGAAAAACATACATGTCGGAGTCACCTAGTGCAG,8700 fluorescence intensity (a.u.)
4,CCTTCGTTTATTTTCTAATCTCAATCCTACTTCTATTTTCCGGAGTCACCTAGTGCAG,9980 fluorescence intensity (a.u.)
5,AGCATTTTTATCCATCTCGTGTACGTGCCGGCGCCGCCGTCGGAGTCACCTAGTGCAG,8090 fluorescence intensity (a.u.)
6,TGGTGACAATCTTTCATTTTTTATTTCAGTGCTCATTTTGCGGAGTCACCTAGTGCAG,8190 fluorescence intensity (a.u.)
7,AGGTATCAGTTCCAGGCTACTTCTTGGATTCCAGTTCATACGGAGTCACCTAGTGCAG,11000 fluorescence intensity (a.u.)
8,CTGGATTCCATCTTGTATGCCGTTTTTCGACGATTTTTTTCGGAGTCACCTAGTGCAG,8080 fluorescence intensity (a.u.)
9,TTTTTAGTTCCACAACACTCATTTCCTTTTCTTTGCGTGACGGAGTCACCTAGTGCAG,8570 fluorescence intensity (a.u.)
10,TGATTCAGCGGTTCTTGTCCAACACATTTAATGCCTCTCCCGGAGTCACCTAGTGCAG,8870 fluorescence intensity (a.u.)
11,CTCTCTCTGTTTCGGCCTCTCATACTCACTCCTCGGCTTCCGGAGTCACCTAGTGCAG,11100 fluorescence intensity (a.u.)
12,TCCAACTTATTTGTCTGCTTGGGAGTTATCTGATGGCAAACGGAGTCACCTAGTGCAG,8060 fluorescence intensity (a.u.)
13,GCTCACTTGCTCGCTGTCTTGCTCTTCGTCTTTCCTCCTCCGGAGTCACCTAGTGCAG,10900 fluorescence intensity (a.u.)
14,CCCCATTCACCAATCCTGAACTTTATGCTATTTGTTATTTCGGAGTCACCTAGTGCAG,12400 fluorescence intensity (a.u.)
15,TATTGACTATGTTTTTTTTTCCCGATTAATATGATAATTTCGGAGTCACCTAGTGCAG,8370 fluorescence intensity (a.u.)
16,TCGCCTTGCGGGCCCCACGGTCGCCGCCGGAGACCGGCCTCGGAGTCACCTAGTGCAG,8200 fluorescence intensity (a.u.)
17,CCATCTGCTTGGCTTTCTTATATAGGCCGTGTTTAGATTCCGGAGTCACCTAGTGCAG,12900 fluorescence intensity (a.u.)
18,CCGCCACCGAGGCACGGCTCTCGAACCTTCCCACTGCTTCCGGAGTCACCTAGTGCAG,8510 fluorescence intensity (a.u.)
19,AATAGATCACCACATTCAATGCAGTTCTTCCGATTAAATTCGGAGTCACCTAGTGCAG,9730 fluorescence intensity (a.u.)
20,CGGATTTTTTTTTACAGTTTACAGGGGATCTATTTGGGTTCGGAGTCACCTAGTGCAG,9770 fluorescence intensity (a.u.)
21,TCTGGCATCCATTCTTCAAATATCTTTTTTGGGGTTTCCACGGAGTCACCTAGTGCAG,9330 fluorescence intensity (a.u.)
22,GGTAAAGATTCTTTTGTGATCTGCCTTCTGCTACTTAAGTCGGAGTCACCTAGTGCAG,8420 fluorescence intensity (a.u.)
23,CCCTCGCCAGCCCTGCATCCTTTGCTTCCTTAACGTGTGACGGAGTCACCTAGTGCAG,8790 fluorescence intensity (a.u.)
24,TACTACTACTATACATCTGCATCTACTACTATTCTACTCTCGGAGTCACCTAGTGCAG,11200 fluorescence intensity (a.u.)
25,AAAGCATAGTCTGTAGTACTAGTTCTCTACCGTCACGATCCGGAGTCACCTAGTGCAG,8430 fluorescence intensity (a.u.)
26,ACCTCCGTTTCAGTTTATAAGTTGTTTTGACTTTGGTAAACGGAGTCACCTAGTGCAG,8840 fluorescence intensity (a.u.)
27,CTCCGTTTTTTAATAGATGACGCCGTTGACTTTTTCTCACCGGAGTCACCTAGTGCAG,27800 fluorescence intensity (a.u.)

# Exported as tab-separated lines: entries from further up
row	Sequence	binding signal
14	CCCCATTCACCAATCCTGAACTTTATGCTATTTGTTATTTCGGAGTCACCTAGTGCAG	12400 fluorescence intensity (a.u.)
15	TATTGACTATGTTTTTTTTTCCCGATTAATATGATAATTTCGGAGTCACCTAGTGCAG	8370 fluorescence intensity (a.u.)
16	TCGCCTTGCGGGCCCCACGGTCGCCGCCGGAGACCGGCCTCGGAGTCACCTAGTGCAG	8200 fluorescence intensity (a.u.)
